Reference: patent US20070003484 (published 2007)

experiment: peptide synthesis; details: conjugation step

Substance	conjugation yield
ACTH (1-17)	74%
H-Arg-Gly-Asp-Cys-OH	92%
H-Asp-Leu-Trp-Gln-Lys-OH	88%
